Laboratory results reported in PubChem BioAssay AID2551 (National Center for Advancing Translational Sciences (NCATS), 2010).
Out of some 310,000 compounds screened, about 17,000 (5.5%) were called active. Inconclusive means that the source gave no clear call. Such entries were picked first, then a sample of the others. Calls follow the shape of the dose curve; as a rule, active = well fitted inhibition curve with a large enough effect; inconclusive = small, poorly fitted or top-dose-only effect, or effect the other way; inactive = no such curve, though single readings can be large or run the other way. Potencies beside an inconclusive call are fits to weak or partial responses and may not hold up.

Sequences of proteins named here, by UniProt entry; tags and fusion partners are left off. A change or cut given only in a name is not applied to a line headed by its entry.
UniProt P51450: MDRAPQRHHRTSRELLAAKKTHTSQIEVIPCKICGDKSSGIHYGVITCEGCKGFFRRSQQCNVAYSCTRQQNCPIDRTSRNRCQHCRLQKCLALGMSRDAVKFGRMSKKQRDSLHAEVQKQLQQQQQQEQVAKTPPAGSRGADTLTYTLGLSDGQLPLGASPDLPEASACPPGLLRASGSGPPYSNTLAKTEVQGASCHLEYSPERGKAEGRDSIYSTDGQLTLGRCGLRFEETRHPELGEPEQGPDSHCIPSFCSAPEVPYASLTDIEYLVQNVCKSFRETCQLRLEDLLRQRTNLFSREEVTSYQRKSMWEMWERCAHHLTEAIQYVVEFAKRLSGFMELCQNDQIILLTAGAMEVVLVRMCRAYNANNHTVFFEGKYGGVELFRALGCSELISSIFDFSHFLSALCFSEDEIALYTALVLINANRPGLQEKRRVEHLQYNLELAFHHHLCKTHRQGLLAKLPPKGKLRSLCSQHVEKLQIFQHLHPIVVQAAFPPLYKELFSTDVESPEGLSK

target: Nuclear receptor ROR-gamma (Mus musculus) (UniProt P51450); test: qHTS for inhibitors of ROR gamma transcriptional activity; settings: Drosophila S2 Gal4-RORgamma UAS-luciferase reporter, 20 h; activity change, negative = inhibition: at 53.6 µM (top of the series); also: nearly all actives have a fitted effect of over 60% in size
In short: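 ROR gamma transcriptional activity was tracked as Gal4-UAS luciferase output in stably transfected Drosophila Schneider cells, with compound added 1 hr before 700 uM copper sulfate induction and a 20 hr ambient-temperature incubation.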
% is scaled to controls: 0 for no effect and ±100 for the full control effect; potency is read from the fitted curve at half-maximal effect.

Potency, active:
C=CCn1c(C)cc(C(=O)COC(=O)[C@@H](NC(=O)c2ccccc2Cl)C(C)C)c1C 14.1 µM, OCc1ccc(O)c2ncccc12 12.6 µM, C=C(C)Cn1cnc2cc(C)c(C)cc21 11.2 µM, O=C(NC(=S)Nc1cccc([N+](=O)[O-])c1)C1CCCC1 12.6 µM, CCOC(=O)NC(=S)Nc1ccc(C(C)(C)C)cc1 2 µM, COc1ccc(-n2cc(-c3ccc(OC)c(OC)c3)[nH]c2=S)cc1 2 µM, CC(C)(C)c1ccc(-c2cc(C(=O)NNC(=O)Nc3ccccc3)c3ccccc3n2)cc1 1 µM

Potency, inconclusive:
C=CCNc1nc(N)c(C(=O)Nc2cc(C)on2)s1 2.82 µM [activator, partial curve], COc1ccc(C(C(C(=O)c2cccs2)N2CCOCC2)N2CCOCC2)cc1OC (configuration not stated) 5.62 µM [inhibitor, single point], Nc1nc(NC(=O)c2ccc(Cl)cc2)nn1-c1ccccc1 12.6 µM [inhibitor, single point], COc1ccc(CCC(=O)N/N=C(\C)c2ccc3c(c2)OCO3)cc1 10 µM [activator, partial curve], C/C(=N\NC(=O)c1ccccc1C)c1ccc(NC(=O)c2cccs2)cc1 35.5 µM [inhibitor, single point], c1csc(-c2cnc3n2CCCC3)c1 0.562 µM [inhibitor, full curve], CCOC(=O)c1cc2ccc3ccccc3c2s1 11.2 µM [activator, partial curve], COc1ccc2c(c1)[nH]c1c(N3CCSCC3)ncnc12 22.4 µM [activator, single point], O=S(=O)(Nc1ccc(F)cc1Cl)c1ccc(-c2cnc(C3CC3)o2)cc1 17.8 µM [activator, single point], CC(=O)c1ccc(NC(=O)C(C)OC(=O)c2ccc(NS(=O)(=O)c3ccc(F)c(F)c3)cc2)cc1 (configuration not stated) 10 µM [activator, single point], O=C(Cc1csc(-c2ccccc2)n1)NCc1ccccc1F 31.6 µM [activator, single point]

Activity change, negative = inhibition, inactive:
CCOC(=O)C1C(C(=O)Nc2cccc(C(F)(F)F)c2)C1C(=O)NC(C)C (configuration not stated) 10.6%, Cc1ccc2[nH]c(=O)c3cc(C(=O)N(C)Cc4ccco4)sc3c2c1 22.4%, COc1ccc(N=C2S/C(=C\c3ccco3)C(=O)N2CC(C)C)cc1 8.3%, O=C(Cc1ccc(F)cc1)Nc1ccc(S(=O)(=O)N2CCCCC2)cc1 29.8%
